{"sequences": {"note": "Protein sequences, listed by entry. Tags and fused reporters are not part of them.", "UniProt Q12905": "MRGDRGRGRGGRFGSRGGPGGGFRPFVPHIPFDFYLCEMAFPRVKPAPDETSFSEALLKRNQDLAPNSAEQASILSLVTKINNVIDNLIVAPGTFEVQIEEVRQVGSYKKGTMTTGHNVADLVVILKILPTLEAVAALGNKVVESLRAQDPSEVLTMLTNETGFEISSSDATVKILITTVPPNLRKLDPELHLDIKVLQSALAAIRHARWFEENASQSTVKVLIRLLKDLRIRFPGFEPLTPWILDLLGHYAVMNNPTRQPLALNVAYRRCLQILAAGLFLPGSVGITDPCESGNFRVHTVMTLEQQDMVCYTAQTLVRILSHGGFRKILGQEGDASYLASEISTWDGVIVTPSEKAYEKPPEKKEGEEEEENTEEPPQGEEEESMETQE"}, "source": "paper PMC10795234", "target": "Heterogeneous nuclear ribonucleoprotein K (human (endogenous in MDA-MB-231 and BT-549)) (UniProt P61978)", "experiment": "co-IP; endogenous proteins; 10^7 TNBC cells lysed in NP40 with protease inhibitors; lysates with protein A/G agarose and anti-HNRNPK or anti-ILF2 (IgG as control) at 4 °C overnight; washed with PBST; Western blot; also in cells with LINC00571 overexpression (binding increased) or knockdown (binding decreased)", "note": "No constants are given. Whether binding was seen depends on the method and setting. In cells and extracts the contact can be indirect. Some entries that bind do so weakly or less than the wild type.", "data": [{"substance": "ILF2 (from UniProt Q12905 1-390)", "values": [{"measurement": "binding", "result": "binds"}]}]}
